From PMC2935449

Protein sequences, listed by entry. Tags and fused reporters are not part of them.
UniProt P41878: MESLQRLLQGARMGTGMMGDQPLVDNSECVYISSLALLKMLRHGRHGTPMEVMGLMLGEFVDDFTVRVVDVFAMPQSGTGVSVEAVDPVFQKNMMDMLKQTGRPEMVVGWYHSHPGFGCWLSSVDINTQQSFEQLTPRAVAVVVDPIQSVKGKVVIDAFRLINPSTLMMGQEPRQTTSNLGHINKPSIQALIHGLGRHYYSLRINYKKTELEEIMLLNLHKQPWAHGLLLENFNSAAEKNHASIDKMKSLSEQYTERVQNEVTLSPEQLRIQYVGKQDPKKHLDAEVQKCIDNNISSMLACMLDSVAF
UniProt Q9P7H8: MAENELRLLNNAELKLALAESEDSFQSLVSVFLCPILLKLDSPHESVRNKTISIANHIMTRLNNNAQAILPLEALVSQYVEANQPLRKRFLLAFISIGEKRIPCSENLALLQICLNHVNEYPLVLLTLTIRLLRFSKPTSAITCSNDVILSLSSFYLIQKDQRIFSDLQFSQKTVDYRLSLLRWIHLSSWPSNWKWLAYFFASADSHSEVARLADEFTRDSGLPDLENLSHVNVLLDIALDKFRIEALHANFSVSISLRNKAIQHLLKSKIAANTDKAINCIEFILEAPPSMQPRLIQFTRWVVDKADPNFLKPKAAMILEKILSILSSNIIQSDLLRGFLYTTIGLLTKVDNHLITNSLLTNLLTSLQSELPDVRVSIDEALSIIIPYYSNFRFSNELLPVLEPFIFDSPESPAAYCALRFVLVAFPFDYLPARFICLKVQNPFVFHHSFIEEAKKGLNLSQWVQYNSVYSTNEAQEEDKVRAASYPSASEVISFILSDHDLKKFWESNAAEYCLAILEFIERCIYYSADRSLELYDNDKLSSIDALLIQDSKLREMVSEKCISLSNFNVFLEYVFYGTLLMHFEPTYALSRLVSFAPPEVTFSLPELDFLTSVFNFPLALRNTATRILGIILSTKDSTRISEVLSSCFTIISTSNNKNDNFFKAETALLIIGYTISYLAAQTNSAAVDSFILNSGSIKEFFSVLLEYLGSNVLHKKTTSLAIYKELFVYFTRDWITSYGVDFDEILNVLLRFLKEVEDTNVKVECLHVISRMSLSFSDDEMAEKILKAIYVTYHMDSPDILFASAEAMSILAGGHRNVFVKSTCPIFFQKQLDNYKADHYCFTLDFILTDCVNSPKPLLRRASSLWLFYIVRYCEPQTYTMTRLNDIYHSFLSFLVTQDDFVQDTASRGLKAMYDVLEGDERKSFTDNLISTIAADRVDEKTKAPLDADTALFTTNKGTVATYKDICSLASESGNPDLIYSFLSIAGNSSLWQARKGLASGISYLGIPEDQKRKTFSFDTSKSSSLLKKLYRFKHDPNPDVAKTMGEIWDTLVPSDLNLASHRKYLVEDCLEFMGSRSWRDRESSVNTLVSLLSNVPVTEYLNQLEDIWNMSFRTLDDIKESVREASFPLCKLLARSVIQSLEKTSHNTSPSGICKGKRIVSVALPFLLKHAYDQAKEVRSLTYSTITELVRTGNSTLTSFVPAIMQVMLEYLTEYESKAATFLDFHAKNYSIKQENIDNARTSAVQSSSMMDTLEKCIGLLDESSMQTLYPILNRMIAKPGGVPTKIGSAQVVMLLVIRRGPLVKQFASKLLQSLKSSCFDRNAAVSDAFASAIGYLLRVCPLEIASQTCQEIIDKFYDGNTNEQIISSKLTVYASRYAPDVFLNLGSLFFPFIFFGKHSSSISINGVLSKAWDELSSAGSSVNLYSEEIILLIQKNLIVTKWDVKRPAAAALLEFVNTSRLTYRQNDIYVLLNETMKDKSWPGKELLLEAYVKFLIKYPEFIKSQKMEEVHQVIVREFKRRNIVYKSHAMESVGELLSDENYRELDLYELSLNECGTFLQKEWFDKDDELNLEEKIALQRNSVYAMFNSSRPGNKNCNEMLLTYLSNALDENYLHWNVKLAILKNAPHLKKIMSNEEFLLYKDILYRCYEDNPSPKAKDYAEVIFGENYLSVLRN

How the values were obtained:
Otu1-TAP (S. pombe) = target: T1, Otu1-TAP (S. pombe) (UniProt O13974); experiment: affinity purification with mass spectrometry; bait endogenously TAP-tagged at its C-terminus, tandem affinity purification from native S. pombe lysate, co-purified proteins identified by 2D LC-MS/MS; duplicates, only proteins found in both replicates
T1 sequence: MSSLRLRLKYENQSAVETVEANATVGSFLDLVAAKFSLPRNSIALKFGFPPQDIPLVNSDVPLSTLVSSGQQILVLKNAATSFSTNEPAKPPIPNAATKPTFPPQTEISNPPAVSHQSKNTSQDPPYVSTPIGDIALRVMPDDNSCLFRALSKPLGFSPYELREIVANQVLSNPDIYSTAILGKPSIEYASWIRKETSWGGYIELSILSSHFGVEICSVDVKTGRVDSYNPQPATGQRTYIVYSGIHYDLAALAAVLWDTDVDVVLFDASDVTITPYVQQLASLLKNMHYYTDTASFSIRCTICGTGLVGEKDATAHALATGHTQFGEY

Rpn11-TAP (S. pombe) = Rpn11-TAP (S. pombe) (UniProt P41878); experiment: as above
Uch2-TAP (S. pombe) = target: T2, Uch2-TAP (S. pombe) (UniProt Q9UUB6); experiment: as above
T2 sequence: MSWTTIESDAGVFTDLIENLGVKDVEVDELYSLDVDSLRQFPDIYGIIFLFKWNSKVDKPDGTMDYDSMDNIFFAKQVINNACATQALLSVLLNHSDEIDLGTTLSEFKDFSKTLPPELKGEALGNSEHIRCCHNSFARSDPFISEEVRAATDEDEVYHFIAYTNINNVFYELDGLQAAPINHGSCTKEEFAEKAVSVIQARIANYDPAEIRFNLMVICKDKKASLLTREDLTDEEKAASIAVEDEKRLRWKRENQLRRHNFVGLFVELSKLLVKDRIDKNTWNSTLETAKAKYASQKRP

Ubp2-TAP (S. pombe) = target: T3, Ubp2-TAP (S. pombe) (UniProt Q9P3U0); experiment: as above
T3 sequence: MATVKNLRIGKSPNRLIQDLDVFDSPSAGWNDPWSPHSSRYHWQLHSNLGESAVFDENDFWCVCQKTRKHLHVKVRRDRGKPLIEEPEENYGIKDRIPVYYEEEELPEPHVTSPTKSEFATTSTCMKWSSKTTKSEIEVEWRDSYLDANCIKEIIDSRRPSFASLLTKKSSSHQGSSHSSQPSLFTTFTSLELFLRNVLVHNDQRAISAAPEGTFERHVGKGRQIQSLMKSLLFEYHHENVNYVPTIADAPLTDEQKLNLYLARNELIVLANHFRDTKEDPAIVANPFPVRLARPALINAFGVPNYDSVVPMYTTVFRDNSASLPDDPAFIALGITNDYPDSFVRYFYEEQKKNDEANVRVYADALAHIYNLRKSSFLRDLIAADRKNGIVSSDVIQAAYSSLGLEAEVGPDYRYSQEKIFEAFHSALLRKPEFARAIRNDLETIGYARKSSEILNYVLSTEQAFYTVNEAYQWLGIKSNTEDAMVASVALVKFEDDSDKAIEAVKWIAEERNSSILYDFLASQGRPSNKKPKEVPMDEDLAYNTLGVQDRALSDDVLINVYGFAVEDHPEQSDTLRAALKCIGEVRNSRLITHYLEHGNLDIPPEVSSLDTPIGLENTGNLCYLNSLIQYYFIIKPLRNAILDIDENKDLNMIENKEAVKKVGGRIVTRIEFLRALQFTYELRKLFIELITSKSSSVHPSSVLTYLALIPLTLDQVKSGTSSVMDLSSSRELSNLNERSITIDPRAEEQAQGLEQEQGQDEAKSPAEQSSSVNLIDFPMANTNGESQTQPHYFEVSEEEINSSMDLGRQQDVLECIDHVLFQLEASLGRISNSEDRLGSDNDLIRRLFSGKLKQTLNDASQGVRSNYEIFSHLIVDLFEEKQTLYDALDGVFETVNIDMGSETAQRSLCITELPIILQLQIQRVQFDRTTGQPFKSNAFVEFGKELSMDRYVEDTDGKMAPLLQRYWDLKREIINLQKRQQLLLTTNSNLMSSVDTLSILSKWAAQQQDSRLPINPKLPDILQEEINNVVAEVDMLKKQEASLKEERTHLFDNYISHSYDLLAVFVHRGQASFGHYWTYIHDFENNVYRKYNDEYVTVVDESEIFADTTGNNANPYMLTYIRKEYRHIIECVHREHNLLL

TAP-Ubp1 (S. pombe) = target: T4, TAP-Ubp1 (S. pombe) (UniProt Q9USM5); experiment: affinity purification with mass spectrometry; bait N-terminally TAP-tagged, expressed at low levels from the nmt81 promoter (pREP81-TAP), tandem affinity purification from native S. pombe lysate, 2D LC-MS/MS; duplicates
T4 sequence: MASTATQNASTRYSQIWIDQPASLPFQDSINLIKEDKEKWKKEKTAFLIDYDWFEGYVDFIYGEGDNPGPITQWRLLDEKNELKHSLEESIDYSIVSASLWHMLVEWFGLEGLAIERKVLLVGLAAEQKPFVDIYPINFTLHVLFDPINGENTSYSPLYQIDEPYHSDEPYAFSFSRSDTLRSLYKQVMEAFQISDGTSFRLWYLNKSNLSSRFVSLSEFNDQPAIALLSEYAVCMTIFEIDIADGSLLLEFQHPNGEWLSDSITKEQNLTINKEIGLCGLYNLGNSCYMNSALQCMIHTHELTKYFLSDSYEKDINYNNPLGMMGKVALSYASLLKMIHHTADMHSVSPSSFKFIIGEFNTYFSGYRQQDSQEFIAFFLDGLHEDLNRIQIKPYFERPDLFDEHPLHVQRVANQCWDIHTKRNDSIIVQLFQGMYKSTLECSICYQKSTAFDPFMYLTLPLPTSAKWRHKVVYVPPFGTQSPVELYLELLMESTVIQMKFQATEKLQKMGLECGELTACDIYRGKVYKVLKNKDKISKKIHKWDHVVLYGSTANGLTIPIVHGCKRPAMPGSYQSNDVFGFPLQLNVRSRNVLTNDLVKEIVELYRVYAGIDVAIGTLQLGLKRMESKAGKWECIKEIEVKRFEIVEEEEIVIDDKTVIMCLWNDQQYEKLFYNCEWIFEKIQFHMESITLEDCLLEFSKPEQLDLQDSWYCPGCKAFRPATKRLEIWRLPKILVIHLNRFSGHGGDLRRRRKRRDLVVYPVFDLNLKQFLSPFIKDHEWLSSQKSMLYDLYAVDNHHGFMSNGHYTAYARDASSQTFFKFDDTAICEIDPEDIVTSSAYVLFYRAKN

Cdc48 (from UniProt Q9P3A7 1-809)
binding (Otu1-TAP (S. pombe)): binds

Ecm29 (SPAC1782.01) (from UniProt Q9P7H8 1-1679)
binding (Rpn11-TAP (S. pombe)): binds
binding (Uch2-TAP (S. pombe)): binds

B1: Rpn1302 (SPCC16A11.16c) (protein, UniProt Q9USM1 1-388)
chain: MESVFGRVRNETSERGKYGLVSVKAGKLQRKPGTNILQADHRKGVIYMQMASDELLHFYWKERARVSREVEDDYIIFPEEAEFIKIDECTTGRVYALKFKSSSQIHFYWMQEYSDEKDKETASLINQLIADPVNTTRTINSHNNSSSRGTDDSSTSQLLQLFGAASQDALQDFNWEVLSPTAEAPAILPRFPNVNESANMYRASSESNLNGPHATAGENGEDHEEATASPLDENIDYTHSRTLELLEQLQPLILNETTFVEPFSIDRESHRVITHPRVYPKIFPHSPSDLLRISGRAELSENRDFFKHLSSLMEAVAKPESESLREICNLSLEQVQSASGAELFLHALYDRLVNEGVIVISHITQEGSDGEVEEEGDVEMRESNEKDE
binding (Rpn11-TAP (S. pombe)): binds
binding (Uch2-TAP (S. pombe)): no binding

B2: Ucp6 (protein, UniProt Q10187 1-612)
chain: MEDLDTKIKTLKNMGVSESDAKDSLERCGYDVESAAEFIFSGQLEKSRLVPIMSSTSIASSLPSYQDTFFLPSPRKRRRLPGRIGTVLKPSALFPAIAPFLFVVFEIPVALNTFVHATCKGLLFAEDNASFHRPFTDVSAHLSSSSLSKYNHHSNHRLASPGWWYGEDSCISQSLDPRSVMQVQTIRAFEFLFSSHRLYLDTVHITAALSQVLAGLGNTNTSMSDGDCIAAFLSSYFSPPNAEFDSTFCSTLSSLTNSEKPTYIFNFKPNSTPDLRLSIESCLDLLLHPPSSAQKNWSWIKHVGKVFCCSLPGNNASGTPRFLLTPKIDLSKCIIENRDEMLRRYQLETVYRKTLLEWEDLYKRLTGVTLTDKDIGELLTDGQQFLEKRNPALSSHLQLLKETLQTKISTLISNTNATQHKLSTLYRGMQNKCTRRLLAVIIEPSIIYICLKNSAVQSNRNVSPSANHNEQWYLVRFTTSATISQDSPPCIVEPVTFEEVDLEFEKHISYHNRLLIYVDDDCEASTRTVIPTSVKNFIAEDNEYFDDELAGIIHSPTVSTRSSRSSDVSEYDLEDQGGLQLTVPHINTDVQCHRSRNSACEFPESMHVEHSG
binding (Ubp2-TAP (S. pombe)): binds

B3: Ssr1 (protein, UniProt O13788 1-527)
chain: MSNVTENKHDLHENGVPDSAQPMELDVSKKEDTEPEVRDEAKEFLLSQLPQVEVPEWAQWFDFSKVHEIEKKQNPEFFDGKNTSKTPEVYKEYRDFMISTFRLNSKVYLTFTACRRNLAGDVCAVLRVHRFLEQWGLINYNVNPDTRPSKIGPPSTSHFQILADTPRGLVPLLPPPSSSIPRSKAVTIEDPSIVRTNIYDPSLDDVLKGKGSTPNQKPSLSNLHENNIDQSDSPQHCYCCGNKFNESYYQSQTAQKYNVCISCYQQNRFPSPTTIADYKEVAIQNKIEDDDTWTAQELVLLSEGVEMYSDDWAKVASHVNTKSVEECILKFLNLPSSDKALFKMDKVHTNPVVDSLQGKNPILSVVSFLAKMVPPSSFTQKSSAKEEESDKVKGESVYPKPESESYDVEMNGKSLEDSDSLSELYLTNEEKKMASIIKDSVNVQIKLIESKLSHFDYLDQHIRLKSQELDAFAQATYREKLYMKRECQNARKKIEQQLQSKDTAANGLPVQSSAETSVIPASSMSPS
binding (TAP-Ubp1 (S. pombe)): binds

B4: Sif2 (protein, UniProt O74446 1-382)
chain: MSNRIGPQRSTKTAAKLRLLPSTEEFDDFRRQDTGREVYSQIPQIEGSTAKRDAEHLGKRHREFLPRVTAYCTCDTFRVDLLFKFFQSRRSSHKTRPKQFDECIYSPYSYNNEETTDLLPDTLESSRGTLNRESSQESLQSIFEESGLDRNQPLFREVFCFTYGVVVLWGYTIDEEHRFLRELGRFEIEKLKIEDMEVEEFNYYITTLYQPRIFNDFIALRDASNYMIRLSISHAIAQSVKISLFEELVNETIDATKDTPQMIAETGRVNLKREEIMMAVGQLFILRININLQGSVLDSPELMWTEPQLEPIYTAARSYLEINQRVALLNQRVEVIGDLLSMLKEQITHTHDESLEWIVVILMGLLVLIALFSIVVDWKLFQ
binding (TAP-Ubp1 (S. pombe)): binds

B5: Sif3 (protein, UniProt Q09877 1-472)
chain: MSTKDKLNLPPKRTINTRLSTPVHIPPPINSESTRITPQHGSPPRFGDHRISAAQGLFQRRRNARKIDHPLGWFLKNRHAAAHIPQRTTKTSQKLVLLPENHAVNSFNEEESNYEDLLTPSDAYNLIKLENLPRDKREELGFPRATAYCVCEAFQLPKVKHFLKHYHKVRAKKYDEVLYAVYHLPLVYGRSESCRVSSGPAPDDMPSSASNHNQKHLDSDKPDNENFDSHIISQLYRISEIFVFSYGVVVFWNFSLSQEKDILADLTFGGDNSLMVKPLAEEECEIEDLHFHYAPNTKRPRIYNDMIHIPSADNKMKLAMSHALAQSVKLSRFELRTDVTMNSALFYPKKLALYGHLGLSRVEVVRMSGHLFQLRVDVNLISNILDTPDFLWDSEPLLLPLYTAFREYLEIGPRTNVLNRRCKVIFDMLDIFGKSSADRKMNSITWIIIILISLFVIIFTLEVILRLRWAHR
binding (TAP-Ubp1 (S. pombe)): binds

No constants are given. Whether binding was seen depends on the method and setting. In cells and extracts the contact can be indirect. These calls come from enrichment with a bait or labelling near it, and not all partners need be listed. For part of these data: A no says only that the protein was not detected with the bait.
